Measurements as given in the supplement of paper PMC10849652.
The other results are listed elsewhere or left out.

By UniProt entry, the sequences of proteins in these tests, tags left out. Where a name states a change or a piece, a line headed by the entry shows the natural chain unless it says otherwise.
UniProt Q8IUR0, whole entry, looked up: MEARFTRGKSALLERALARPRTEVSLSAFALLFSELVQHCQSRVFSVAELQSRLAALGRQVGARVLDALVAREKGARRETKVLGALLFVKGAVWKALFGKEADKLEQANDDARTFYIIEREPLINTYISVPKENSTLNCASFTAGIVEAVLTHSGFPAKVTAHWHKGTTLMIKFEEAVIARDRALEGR
UniProt P48553, whole entry, looked up: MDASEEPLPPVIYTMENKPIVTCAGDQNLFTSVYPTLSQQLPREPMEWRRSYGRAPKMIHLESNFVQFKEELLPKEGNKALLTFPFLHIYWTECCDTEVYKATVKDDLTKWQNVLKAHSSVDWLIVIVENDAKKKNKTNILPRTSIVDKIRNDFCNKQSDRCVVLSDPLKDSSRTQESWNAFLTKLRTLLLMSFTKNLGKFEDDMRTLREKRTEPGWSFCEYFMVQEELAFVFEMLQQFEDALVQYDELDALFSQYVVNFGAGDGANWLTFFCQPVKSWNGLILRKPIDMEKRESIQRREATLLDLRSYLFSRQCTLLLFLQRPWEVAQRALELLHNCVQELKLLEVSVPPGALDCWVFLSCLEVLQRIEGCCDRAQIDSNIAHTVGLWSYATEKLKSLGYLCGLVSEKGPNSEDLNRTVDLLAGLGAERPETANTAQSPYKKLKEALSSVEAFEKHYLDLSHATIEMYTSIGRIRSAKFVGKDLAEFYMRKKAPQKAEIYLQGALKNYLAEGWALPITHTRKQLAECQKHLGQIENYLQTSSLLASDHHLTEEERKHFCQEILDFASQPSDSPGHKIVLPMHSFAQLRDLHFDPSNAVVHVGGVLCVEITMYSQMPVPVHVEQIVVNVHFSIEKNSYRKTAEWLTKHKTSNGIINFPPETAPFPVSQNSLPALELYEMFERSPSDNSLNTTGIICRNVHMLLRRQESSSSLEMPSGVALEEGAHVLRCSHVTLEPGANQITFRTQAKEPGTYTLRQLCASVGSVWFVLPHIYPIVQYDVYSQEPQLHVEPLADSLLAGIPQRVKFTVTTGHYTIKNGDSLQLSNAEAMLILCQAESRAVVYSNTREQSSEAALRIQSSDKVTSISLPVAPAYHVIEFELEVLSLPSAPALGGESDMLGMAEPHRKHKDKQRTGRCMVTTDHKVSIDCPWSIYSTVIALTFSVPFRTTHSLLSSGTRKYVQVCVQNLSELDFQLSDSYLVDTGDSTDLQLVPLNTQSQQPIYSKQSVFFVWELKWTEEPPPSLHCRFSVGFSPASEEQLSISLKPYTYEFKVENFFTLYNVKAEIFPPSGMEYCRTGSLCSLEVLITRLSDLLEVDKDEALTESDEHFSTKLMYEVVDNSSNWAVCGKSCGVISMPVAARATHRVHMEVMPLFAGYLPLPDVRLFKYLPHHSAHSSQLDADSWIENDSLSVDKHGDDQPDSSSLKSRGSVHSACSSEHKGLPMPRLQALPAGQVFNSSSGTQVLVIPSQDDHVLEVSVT
UniProt Q969M1: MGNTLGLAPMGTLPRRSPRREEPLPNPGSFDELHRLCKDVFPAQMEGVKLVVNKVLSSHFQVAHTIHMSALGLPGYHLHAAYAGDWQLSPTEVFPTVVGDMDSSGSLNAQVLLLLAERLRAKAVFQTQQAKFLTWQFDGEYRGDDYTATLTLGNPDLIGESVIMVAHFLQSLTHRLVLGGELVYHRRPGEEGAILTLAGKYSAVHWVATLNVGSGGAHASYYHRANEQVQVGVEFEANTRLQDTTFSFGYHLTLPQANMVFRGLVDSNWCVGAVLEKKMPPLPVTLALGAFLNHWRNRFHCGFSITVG
UniProt Q9UKE5: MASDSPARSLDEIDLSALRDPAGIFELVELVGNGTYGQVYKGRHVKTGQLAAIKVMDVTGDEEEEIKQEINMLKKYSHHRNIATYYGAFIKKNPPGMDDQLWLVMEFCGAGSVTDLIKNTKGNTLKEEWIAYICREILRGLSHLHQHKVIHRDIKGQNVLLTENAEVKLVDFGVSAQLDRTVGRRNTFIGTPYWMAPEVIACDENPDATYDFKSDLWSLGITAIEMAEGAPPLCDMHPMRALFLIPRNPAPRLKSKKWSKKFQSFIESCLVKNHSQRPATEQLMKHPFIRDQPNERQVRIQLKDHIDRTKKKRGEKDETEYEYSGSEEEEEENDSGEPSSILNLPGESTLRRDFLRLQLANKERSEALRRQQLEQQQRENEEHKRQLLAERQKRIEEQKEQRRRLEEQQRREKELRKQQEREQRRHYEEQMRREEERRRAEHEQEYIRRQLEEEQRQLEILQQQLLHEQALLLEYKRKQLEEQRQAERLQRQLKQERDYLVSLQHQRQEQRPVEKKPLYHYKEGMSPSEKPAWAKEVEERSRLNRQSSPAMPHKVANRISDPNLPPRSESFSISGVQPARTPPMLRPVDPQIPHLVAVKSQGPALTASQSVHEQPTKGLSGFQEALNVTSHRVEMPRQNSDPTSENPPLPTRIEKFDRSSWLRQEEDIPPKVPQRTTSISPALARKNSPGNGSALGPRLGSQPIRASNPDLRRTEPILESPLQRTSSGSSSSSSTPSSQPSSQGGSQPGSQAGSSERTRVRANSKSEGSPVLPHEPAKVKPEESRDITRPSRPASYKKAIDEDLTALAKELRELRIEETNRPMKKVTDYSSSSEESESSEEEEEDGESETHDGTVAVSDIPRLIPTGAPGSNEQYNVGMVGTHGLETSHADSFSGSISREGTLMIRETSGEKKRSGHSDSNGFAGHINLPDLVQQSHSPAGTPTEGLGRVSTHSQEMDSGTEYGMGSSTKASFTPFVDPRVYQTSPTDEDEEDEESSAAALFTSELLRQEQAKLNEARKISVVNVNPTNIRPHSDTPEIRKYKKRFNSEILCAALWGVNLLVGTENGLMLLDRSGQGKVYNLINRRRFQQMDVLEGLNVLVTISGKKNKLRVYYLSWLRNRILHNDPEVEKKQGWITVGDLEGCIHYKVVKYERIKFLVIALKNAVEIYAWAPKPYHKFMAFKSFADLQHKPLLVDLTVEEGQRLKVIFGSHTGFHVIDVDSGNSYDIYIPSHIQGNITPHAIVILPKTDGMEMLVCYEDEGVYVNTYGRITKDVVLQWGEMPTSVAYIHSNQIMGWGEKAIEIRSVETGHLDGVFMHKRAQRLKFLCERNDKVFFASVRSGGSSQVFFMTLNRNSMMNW
UniProt O94826, whole entry, looked up: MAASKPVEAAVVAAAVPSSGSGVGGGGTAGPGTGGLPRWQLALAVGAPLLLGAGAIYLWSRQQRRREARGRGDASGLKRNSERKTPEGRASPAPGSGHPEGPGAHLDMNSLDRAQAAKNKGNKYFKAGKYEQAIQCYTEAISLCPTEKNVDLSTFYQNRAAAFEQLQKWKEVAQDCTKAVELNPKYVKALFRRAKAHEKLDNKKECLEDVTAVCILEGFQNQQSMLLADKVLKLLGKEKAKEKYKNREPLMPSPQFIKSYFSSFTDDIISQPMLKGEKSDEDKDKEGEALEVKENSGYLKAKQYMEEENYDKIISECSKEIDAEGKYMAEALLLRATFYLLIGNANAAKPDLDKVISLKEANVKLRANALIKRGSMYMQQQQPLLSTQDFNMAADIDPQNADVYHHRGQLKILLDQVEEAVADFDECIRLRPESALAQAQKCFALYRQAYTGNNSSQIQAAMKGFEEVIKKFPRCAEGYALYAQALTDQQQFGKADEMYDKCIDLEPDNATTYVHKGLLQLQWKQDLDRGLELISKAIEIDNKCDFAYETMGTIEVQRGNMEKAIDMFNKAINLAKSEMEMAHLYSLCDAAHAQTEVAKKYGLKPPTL
UniProt Q14258, whole entry, looked up: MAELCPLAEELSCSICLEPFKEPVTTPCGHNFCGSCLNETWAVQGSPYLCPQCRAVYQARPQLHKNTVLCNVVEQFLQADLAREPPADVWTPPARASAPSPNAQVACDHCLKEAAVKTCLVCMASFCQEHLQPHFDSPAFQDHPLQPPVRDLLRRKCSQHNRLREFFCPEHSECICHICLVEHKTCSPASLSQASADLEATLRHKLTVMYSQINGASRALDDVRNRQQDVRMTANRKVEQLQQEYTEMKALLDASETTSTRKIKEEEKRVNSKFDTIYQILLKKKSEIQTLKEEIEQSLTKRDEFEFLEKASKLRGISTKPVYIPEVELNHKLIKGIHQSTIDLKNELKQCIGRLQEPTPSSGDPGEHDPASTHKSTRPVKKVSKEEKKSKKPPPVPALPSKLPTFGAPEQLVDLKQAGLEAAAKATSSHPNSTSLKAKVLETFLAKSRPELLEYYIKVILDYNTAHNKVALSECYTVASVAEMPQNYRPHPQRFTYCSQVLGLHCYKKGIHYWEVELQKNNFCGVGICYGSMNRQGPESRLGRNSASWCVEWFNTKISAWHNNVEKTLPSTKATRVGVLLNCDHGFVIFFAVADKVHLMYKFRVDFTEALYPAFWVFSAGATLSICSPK
UniProt O75157: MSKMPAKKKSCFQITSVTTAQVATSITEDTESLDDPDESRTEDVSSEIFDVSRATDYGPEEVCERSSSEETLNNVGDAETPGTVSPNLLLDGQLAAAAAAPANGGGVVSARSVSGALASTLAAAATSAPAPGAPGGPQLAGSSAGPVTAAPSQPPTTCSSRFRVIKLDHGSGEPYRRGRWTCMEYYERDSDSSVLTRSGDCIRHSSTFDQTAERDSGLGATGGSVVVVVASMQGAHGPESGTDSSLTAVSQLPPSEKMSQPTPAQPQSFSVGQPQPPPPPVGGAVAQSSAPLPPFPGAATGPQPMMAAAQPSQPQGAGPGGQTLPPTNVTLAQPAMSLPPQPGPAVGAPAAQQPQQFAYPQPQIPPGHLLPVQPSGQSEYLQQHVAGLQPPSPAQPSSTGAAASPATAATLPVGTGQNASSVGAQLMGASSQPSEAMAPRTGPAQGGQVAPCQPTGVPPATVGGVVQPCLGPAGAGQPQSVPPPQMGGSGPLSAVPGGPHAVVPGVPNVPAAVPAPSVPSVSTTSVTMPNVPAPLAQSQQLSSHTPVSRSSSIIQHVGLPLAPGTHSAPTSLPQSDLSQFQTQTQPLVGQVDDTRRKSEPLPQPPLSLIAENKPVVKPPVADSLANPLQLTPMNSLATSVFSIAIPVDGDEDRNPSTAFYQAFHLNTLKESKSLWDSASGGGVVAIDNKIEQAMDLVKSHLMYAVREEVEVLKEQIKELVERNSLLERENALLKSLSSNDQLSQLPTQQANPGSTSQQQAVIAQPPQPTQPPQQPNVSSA
UniProt Q15714: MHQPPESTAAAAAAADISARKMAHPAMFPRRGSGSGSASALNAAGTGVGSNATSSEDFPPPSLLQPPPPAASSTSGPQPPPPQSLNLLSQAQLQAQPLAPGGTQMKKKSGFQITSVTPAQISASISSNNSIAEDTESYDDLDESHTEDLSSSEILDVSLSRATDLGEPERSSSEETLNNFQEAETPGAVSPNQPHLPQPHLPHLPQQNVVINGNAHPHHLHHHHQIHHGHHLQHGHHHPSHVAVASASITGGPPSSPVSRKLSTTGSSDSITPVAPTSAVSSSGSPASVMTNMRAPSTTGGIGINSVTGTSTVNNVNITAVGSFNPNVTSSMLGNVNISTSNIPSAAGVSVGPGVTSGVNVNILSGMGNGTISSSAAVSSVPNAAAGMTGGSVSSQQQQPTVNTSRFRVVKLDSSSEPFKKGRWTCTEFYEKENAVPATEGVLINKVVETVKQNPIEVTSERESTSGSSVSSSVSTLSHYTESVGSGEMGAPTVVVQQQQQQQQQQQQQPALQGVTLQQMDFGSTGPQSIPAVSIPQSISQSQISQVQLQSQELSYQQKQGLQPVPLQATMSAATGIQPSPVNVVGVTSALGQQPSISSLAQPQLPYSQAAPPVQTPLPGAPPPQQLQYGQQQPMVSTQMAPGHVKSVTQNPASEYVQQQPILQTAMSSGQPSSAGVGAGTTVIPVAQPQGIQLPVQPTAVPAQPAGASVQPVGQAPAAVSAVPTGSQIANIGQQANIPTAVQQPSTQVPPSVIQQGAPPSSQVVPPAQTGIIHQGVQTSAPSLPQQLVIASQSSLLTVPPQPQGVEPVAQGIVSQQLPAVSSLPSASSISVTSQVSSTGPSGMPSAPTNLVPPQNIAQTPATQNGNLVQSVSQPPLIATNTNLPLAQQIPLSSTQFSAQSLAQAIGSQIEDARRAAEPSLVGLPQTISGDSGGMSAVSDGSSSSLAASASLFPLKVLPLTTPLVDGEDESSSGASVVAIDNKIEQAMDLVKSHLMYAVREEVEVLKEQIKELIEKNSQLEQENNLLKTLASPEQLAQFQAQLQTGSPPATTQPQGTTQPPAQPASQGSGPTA
UniProt O14656: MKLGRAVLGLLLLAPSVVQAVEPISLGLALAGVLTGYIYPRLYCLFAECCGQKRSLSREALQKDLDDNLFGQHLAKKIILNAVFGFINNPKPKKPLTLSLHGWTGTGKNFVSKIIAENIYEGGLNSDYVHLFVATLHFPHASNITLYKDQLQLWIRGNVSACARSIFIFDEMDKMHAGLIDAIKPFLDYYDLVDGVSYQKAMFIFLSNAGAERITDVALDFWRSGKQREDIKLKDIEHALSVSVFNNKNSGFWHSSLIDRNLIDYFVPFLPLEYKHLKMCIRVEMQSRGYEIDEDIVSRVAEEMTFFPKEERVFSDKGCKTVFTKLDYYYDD

Columns and labels:
Assay in all cases: log2 fold change, soluble protein after heating vs DMSO (PISA); higher = thermal stabilisation; K562 cells, 10 uM, 30 min; active = over 0.2 and 3.5 SD of the protein, either way, in both replicates (recomputed)
[1] = compound: CC1=C(C=C(C=C1)NC(=O)C2=CC(=CC=C2)C(C)(C)C#N)NC3=CC4=C(C=C3)N=CN(C4=O)C
Outline: (§1)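 K562 cells at 2×10^6 cells/mL were given 10 μM compound for 30 min. Aliquots then went through 3 min of heating across 48°C-58°C, were pooled, and were extracted in PBS with 0.5% NP-40 at 4°C, and the supernatant after 21,000xg for 90 min was quantified by TMTpro 16plex LC-MS/MS with channel sums equalised. Thermal stability relative to control samples, from duplicates, is given as log2 fold change.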

[2] = compound: CC1=C(C=C(C=C1)NC(=O)C2=CC(=CC=C2)N(C)C)NC(=O)C3=CC=C(C=C3)O
Outline: as §1

[3] = compound: CC1=CC=C(C=C1)SC2=C3C=C(SC3=CN=C2)C(=O)N
Outline: as §1

[4] = compound: CC1=NC(=CC=C1)C2=C(N=C(N2)C(C)(C)C)C3=CC4=NC=CN=C4C=C3
Outline: as §1

[5] = compound: CCCCN(Cc1ccc(C(=O)NO)cc1)C(=O)Nc1ccccc1 [Nexturastat A]
Outline: as §1

[6] = compound: CCCS(=O)(=O)Nc1ccc(F)c(C(=O)c2c[nH]c3ncc(-c4ccc(Cl)cc4)cc23)c1F [vemurafenib]
Outline: as §1

[7] = compound: CCCS(=O)(=O)Nc1ccc(F)c(C(=O)c2c[nH]c3ncc(Cl)cc23)c1F
Outline: as §1

[8] = compound: CCCc1cc(C)[nH]c(=O)c1CNC(=O)c1cc(-c2ccnc(N3CCN(C)CC3)c2)cc2c1cnn2C(C)C
Outline: as §1

[9] = compound: CCN(CC)Cc1ccc2cc(COC(=O)Nc3ccc(C(=O)NO)cc3)ccc2c1 [givinostat]
Outline: as §1

[10] = compound: CCN(CCCOc1ccc2c(Nc3cc(CC(=O)Nc4cccc(F)c4)[nH]n3)ncnc2c1)CCOP(=O)(O)O [barasertib]
Outline: as §1

[11] = compound: CC[C@@H]1C(=O)N(C)c2cnc(Nc3ccc(C(=O)NC4CCN(C)CC4)cc3OC)nc2N1C1CCCC1
Outline: as §1

[12] = compound: CC[C@@H]1C(=O)N(C)c2cnc(Nc3ccc(C(=O)N[C@H]4CC[C@H](N5CCN(CC6CC6)CC5)CC4)cc3OC)nc2N1C(C)C [volasertib]
Outline: as §1

[13] = compound: CC[C@H](C)N1C=C(C2=C(C=C(C=C21)C3=CN=C(C=C3)N4CCNCC4)C(=O)NCC5=C(C=C(NC5=O)C)C)C
Outline: as §1

[14] = compound: CC[C@H](C)[C@@H](C(=O)N[C@@H]([C@@H](C)O)C(=O)N[C@@H](CC(C)C)C(=O)[C@]1(CO1)C)NC(=O)[C@H]([C@@H](C)CC)N(C)C(=O)C [epoxomicin]
Outline: as §1

[15] = compound: CCn1c(C(=O)N(C2CC2)C2CC2)cc2c3c(ncn3C)c(Nc3cc(C)n(C)n3)nc21
Outline: as §1

[16] = compound: CCn1cc(-c2ccnc3[nH]c(-c4cccc(CN(C)C)c4)cc23)c(-c2ccc(NC(=O)N(C)C)cc2)n1
Outline: as §1

[17] = compound: CN(C)CC(=O)Nc1ccc2[nH]c(=O)c3ccccc3c2c1
Outline: as §1

[18] = compound: CN(CCOC1=CC=C(C=C1)C[C@H]2C(=O)NC(=O)S2)C3=CC=CC=N3 (racemic) [rosiglitazone]
Outline: as §1

[19] = compound: CN1C2=C(C3=C1C(=O)N(N=C3)CC4=CC(=CC=C4)N)SC(=C2)S(=O)C
Outline: as §1

[20] = compound: CN1CCC(CNc2ccc3ncc(-c4cccc(OC(F)(F)F)c4)n3n2)CC1
Outline: as §1

Measured: log2 fold change

TP53I3 (UniProt Q53FA7)
inactive: [1] -0.033 | [2] 0.019 | [3] -0.017 | [4] -0.072 | [5] 0.121 | [6] -0.013 | [7] -0.026 | [8] -0.102 | [9] 0.007 | [10] -0.035 | [11] 0.023 | [12] 0.055 | [13] -0.027 | [14] 0.022 | [15] 0.028 | [16] 0.026 | [17] -0.031 | [18] -0.006 | [19] 0.005 | [20] -0.035

TOMM34 (UniProt Q15785)
inactive: [1] 0.008 | [2] 0.009 | [3] 0.033 | [4] 0.021 | [5] 0.018 | [6] 0.082 | [7] 0.055 | [8] 0.07 | [9] 0.162 | [10] 0.08 | [11] -0.038 | [12] -0.214 | [13] 0.056 | [14] -0.009 | [15] -0.055 | [16] -0.017 | [17] 0.078 | [18] 0.034 | [19] 0.085 | [20] -0.212

TRIR (UniProt Q9BQ61)
inactive: [1] -0.07 | [2] 0.029 | [3] -0.049 | [4] 0.034 | [5] 0.016 | [6] -0.047 | [7] -0.113 | [8] -0.097 | [9] 0.012 | [10] -0.018 | [11] 0.027 | [12] 0.092 | [13] -0.027 | [14] -0.001 | [15] -0.018 | [16] 0.03 | [17] -0.056 | [18] -0.039 | [19] -0.031 | [20] 0.052

TRMT1L (UniProt Q7Z2T5)
inactive: [1] 0.034 | [2] -0.029 | [3] -0.073 | [4] -0.095 | [5] 0.212 | [6] -0.207 | [7] -0.001 | [8] 0.123 | [9] -0.008 | [10] -0.108 | [11] 0.282 | [12] 0.41 | [13] 0.045 | [14] -0.36 | [15] 0.057 | [16] 0.179 | [17] -0.161 | [18] -0.153 | [19] 0.334 | [20] 0.335

TRAPPC5 (UniProt Q8IUR0)
inactive: [1] -0.01 | [2] -0.037 | [3] 0.047 | [4] -0.007 | [5] -0.113 | [6] 0.04 | [7] 0.082 | [8] 0.001 | [9] 0.016 | [10] 0.077 | [11] -0.127 | [12] -0.171 | [13] 0.103 | [14] 0.082 | [15] 0.008 | [16] 0.033 | [17] -0.023 | [18] 0.063 | [19] -0.053 | [20] -0.113

TRAPPC10 (UniProt P48553)
inactive: [1] -0.039 | [2] 0.069 | [3] -0.028 | [4] -0.002 | [5] 0.069 | [6] 0.035 | [7] 0.025 | [8] -0.047 | [9] 0.053 | [10] -0.004 | [11] -0.034 | [12] -0.144 | [13] 0.026 | [14] -0.034 | [15] -0.024 | [16] -0.072 | [17] 0.007 | [18] 0.028 | [19] 0.008 | [20] 0

TOMM40L (UniProt Q969M1)
inactive: [1] 0.023 | [2] 0.037 | [3] -0.013 | [4] -0.012 | [5] -0.036 | [6] 0.082 | [7] -0.02 | [8] -0.015 | [9] -0.032 | [10] -0.015 | [11] 0.021 | [12] 0.06 | [13] -0.099 | [14] -0.005 | [15] 0.004 | [16] -0.059 | [17] 0.094 | [18] 0.395 | [19] -0.018 | [20] 0.081

TNIK isoform 6 (UniProt Q9UKE5)
inactive: [1] 0.004 | [2] 0.025 | [3] -0.034 | [4] -0.017 | [5] 0.047 | [6] -0.026 | [7] -0.035 | [8] -0.047 | [9] 0.015 | [10] -0.011 | [11] -0.041 | [12] 0.003 | [13] 0.011 | [14] 0.025 | [15] -0.008 | [16] -0.062 | [17] -0.024 | [18] 0.026 | [19] 0.016 | [20] -0.034

TOMM70 (UniProt O94826)
inactive: [1] 0.023 | [2] -0.037 | [3] -0.003 | [4] 0.033 | [5] -0.031 | [6] 0.029 | [7] 0.056 | [8] -0.006 | [9] 0.019 | [10] 0.029 | [11] -0.057 | [12] -0.102 | [13] 0.057 | [14] 0.023 | [15] -0.018 | [16] -0.029 | [17] 0.004 | [18] 0.018 | [19] -0.027 | [20] -0.017

Two neighbouring records out of the list so far, quoted:
TP53I3 (UniProt Q53FA7)
inactive: [1] -0.033 | [2] 0.019 | [3] -0.017 | [4] -0.072 | [5] 0.121 | [6] -0.013 | [7] -0.026 | [8] -0.102 | [9] 0.007 | [10] -0.035 | [11] 0.023 | [12] 0.055 | [13] -0.027 | [14] 0.022 | [15] 0.028 | [16] 0.026 | [17] -0.031 | [18] -0.006 | [19] 0.005 | [20] -0.035

TOMM34 (UniProt Q15785)
inactive: [1] 0.008 | [2] 0.009 | [3] 0.033 | [4] 0.021 | [5] 0.018 | [6] 0.082 | [7] 0.055 | [8] 0.07 | [9] 0.162 | [10] 0.08 | [11] -0.038 | [12] -0.214 | [13] 0.056 | [14] -0.009 | [15] -0.055 | [16] -0.017 | [17] 0.078 | [18] 0.034 | [19] 0.085 | [20] -0.212

Additional entries follow:

TRIM25 (UniProt Q14258)
inactive: [1] 0.049 | [2] -0.005 | [3] -0.014 | [4] -0.025 | [5] 0.253 | [6] 0.037 | [7] 0.04 | [8] 0.13 | [9] 0.08 | [10] -0.033 | [11] -0.01 | [12] -0.277 | [13] 0.069 | [14] -0.166 | [15] -0.051 | [16] 0.131 | [17] 0.038 | [18] -0.018 | [19] 0.207 | [20] 0.123

TSC22D2 (UniProt O75157)
inactive: [1] 0.046 | [2] -0.061 | [3] 0.035 | [4] 0.01 | [5] 0.021 | [6] 0.018 | [7] -0.088 | [8] -0.004 | [9] 0.012 | [10] -0.025 | [11] 0.04 | [12] 0.003 | [13] -0.115 | [14] 0.026 | [15] 0.05 | [16] -0.042 | [17] -0.027 | [18] 0.025 | [19] 0.035 | [20] 0.014

TSC22D1 (UniProt Q15714)
inactive: [1] 0.003 | [2] -0.002 | [3] 0.055 | [4] 0.025 | [5] -0.075 | [6] -0.054 | [7] 0.136 | [8] -0.011 | [9] 0.009 | [10] 0.026 | [11] 0.046 | [12] -0.015 | [13] 0.008 | [14] 0.083 | [15] -0.035 | [16] -0.13 | [17] -0.026 | [18] -0.009 | [19] -0.079 | [20] 0.035

TPRKB (UniProt Q9Y3C4)
inactive: [1] 0.03 | [2] 0.002 | [3] 0.02 | [4] 0.016 | [5] -0.003 | [6] -0.036 | [7] -0.019 | [8] -0.025 | [9] -0.062 | [10] 0.025 | [11] 0.023 | [12] 0.068 | [13] 0.008 | [14] -0.034 | [15] 0.025 | [16] -0.017 | [17] 0.086 | [18] -0.004 | [19] -0.055 | [20] 0.035

TPT1 (UniProt P13693)
inactive: [1] 0.095 | [2] -0.033 | [3] 0.004 | [4] 0.032 | [5] -0.025 | [6] 0.019 | [7] 0.011 | [8] 0.117 | [9] 0.002 | [10] -0.016 | [11] 0 | [12] 0.169 | [13] 0.054 | [14] 0.059 | [15] -0.008 | [16] -0.202 | [17] 0.01 | [18] 0.049 | [19] -0.103 | [20] -0.062

TRAF4 (UniProt Q9BUZ4)
inactive: [1] 0.023 | [2] -0.025 | [3] 0 | [4] 0.002 | [5] 0.151 | [6] -0.064 | [7] 0.064 | [8] 0.038 | [9] 0.017 | [10] 0.03 | [11] 0.021 | [12] 0.032 | [13] -0.011 | [14] -0.001 | [15] -0.019 | [16] 0.006 | [17] 0.013 | [18] 0.031 | [19] 0.073 | [20] -0.012

TOR1A (UniProt O14656)
inactive: [1] -0.023 | [2] 0.011 | [3] -0.01 | [4] -0.02 | [5] -0.011 | [6] -0.007 | [7] -0.018 | [8] -0.088 | [9] -0.026 | [10] 0.004 | [11] 0.067 | [12] 0.008 | [13] -0.03 | [14] 0.01 | [15] 0.015 | [16] 0.025 | [17] -0.014 | [18] 0.007 | [19] -0.053 | [20] 0.039
